From the supplement of paper PMC6445147
This is a noisy data set.

B1: human tRNA-Pro; a variant is named by its letters at N, in order (parent)
chain: GGCTCGTTGGTCTAGNGGTATGATTCTCGCTTAGGGTGCGAGAGGTCCCGGGTTCNNATCCCGGACGAGCCC

Variants of: B1
Test: tRNA 3' processing efficiency (processed reads / all reads, maximum-likelihood estimate) (fraction); higher = more efficient 3' processing
Details: HEK293T; construct: no Pol-II promoter ((-)CMV library)

| Variant | tRNA 3' processing efficiency |
| --- | --- |
| GGCTCGTTGGTCTAGCGGTTTGATTCTCGCTTAGGGTGCGAGAGGTCCCGGGTTTTAATCCCGGACGAGCCC | 0.25 |
| GGCTCGTTGGTCTAGTGGTATGATTCTCGCTTAGGGTGCGAGAGGTCCCCGGTTCATACCCCGGACGAGCCC | 0.43 |
| GGCTCGTTGGTCTAAGCGCATGATTCTCGCTTAGGGTGCGAGAGGTCCCGGGTTCATATCCCGGACGAGCCC | 0.4 |
| GGCTCGTTGGTCTCGGCGGTTGATTCTCGCTTAGGGTGCGAGAGGTCCCGGGTTCGAGTCCCGGACGAGCCC | 0.25 |
| GGCTCGTTGGTCTACCCGTATGATTCTCGCTTAGGGTGCGAGAGGTCCCGGGTTCAGATCCCGGACGAGCCC | 0.43 |
| GGCTCGTTGGTCTGGGGATATGATTCTCGCTTAGGGTGCGAGAGGTCCCGGGTTCACAGCCCGGACGAGCCC | 0.25 |
| GGCTCGTTGGTCTAGGGGTATGATTCTCGCTTAGGGTGCGAGAGGTCCCGTGTTCAATTCCCGGACGAGCCC | 0.25 |
| GGCTCGTTGGTCTAGCGGCATGATTCTCGCTTAGGGTGCGAGAGGTCCCGGGTTCTACTCCCGGACGAGCCC | 0.26 |
| GGCTCGTTGGTCTAGTGGTATGATTCTCGCTTAGGGTGCGAGAGGTCCCGGGTTCCAGACCCGGACGAGCCC | 0.75 |
| GGCTCGTTGGTCTGGGGGGATGATTCTCGCTTAGGGTGCGAGAGGTCCCGGGTTCGTATCCCGGACGAGCCC | 0.25 |
| GGCTCGTTGGTCTAGTGACATGATTCTCGCTTAGGGTGCGAGAGGTCCCGGGTTCATAGCCCGGACGAGCCC | 0.29 |
| GGCTCGTTGGTCTACGGGAATGATTCTCGCTTAGGGTGCGAGAGGTCCCGGGTTCCAATCCCGGACGAGCCC | 0.08 |
| GGCTCGTTGGTCTATGGTCATGATTCTCGCTTGGGGTGCGAGAGGTCCCGGGTTCAACTCCCGGACGAGCCC | 0.5 |
| GGCTCGTTGGTCTAGGAATATGATTCTCGCTTAGGGTGCGAGAGGTCCCGGGTTCCAGTCCCGGACGAGCCC | 0.7 |
| GGCTCGTTGGTCTGCGGCTATGATTCTCGCTTAGGGTGCGAGAGGTCCCGGGTTCAATTCCCGGACGAGCCC | 0.25 |
| GGCTCGTTGGTCTTGGGGGTTGATTCTCGCTTAGGGTGCGAGAGGTCCCGGGTTCTAATCCCGGACGAGCCC | 0.4 |
| GGCTCGTTCGTCTAGGGGTATGATTCTCGCTTAGGGTGCGAGAGGTCCCGGGTTCGAACCCCGGACGAGCCC | 0.25 |
| GGCTCGTTAGTCTAGAGTGATGATTCTCGCTTAGGGTGCGAGAGGTCCCGGGTTCATATCCCGGACGAGCCC | 0.58 |

| Variant | tRNA 3' processing efficiency |
| --- | --- |
| GGCTCGTTGGTCTAGGGGTATGATTCTCGCTTAGGGTGCGAGAGGTCCCGTGTTCATATCCCGGACGAGCCC | 0.29 |
| GGCTCGTTAGTCTAGAGGTTTGATTCTCGCTTAGGGTGCGAGAGGTCCCGGGTTCAAGGCCCGGACGAGCCC | 0.5 |
| GGCTCGTTGGTCTAGGGGTATGATTCCCGCTTAGGGTGCGAGAGGTCCCGGGTTCCTATCCCGGACGAGCCC | 0.43 |
| GGCTCGTCGGTCTGGCGGTATGATTCTCGCTTAGGGTGCGAGAGGTCCCGGGTTCAGATCCCGGACGAGCCC | 0.25 |
| GGCTCGTTGGTCTAGCGGTATGATTCTCGCTTAGGGCGCGAGAGGTCCCGGGTACAAATCCCGGACGAGCCC | 0.25 |
| GGCTCGTTGGTCTAGGACTATGATTCTCGCTTAGGGTGCGAGAGGTCCCGGGATCTAATCCCGGACGAGCCC | 0.25 |
| GGCTCGTTGGTCTACTGGTATGATTCTCGCTTAGGGTGCGAGAGGTCCCGGGTTCTACACCCGGACGAGCCC | 0.17 |
| GGCTCGTTGGTCTAGTGGAATTATTCTCGCTTAGGGTGCGAGAGGTCCCGGGTTCAGATCCCGGACGAGCCC | 0.17 |
| GGCTCGTGGGTCTAGGGGGATGATTCTCGCTTAGGGTGCGAGAGGTCCCGGGTTCTATTCCCGGACGAGCCC | 0.4 |
| GGCTCGTCGGTCTAGGGGGATGATTCTCGCTTAGGGTGCGAGAGGTCCCGGGTTCTAAACCCGGACGAGCCC | 0.57 |
| GGCTCGTCGGTCTTGCGGTATGATTCTCGCTTAGGGTGCGAGAGGTCCCGGGTTCAAGTCCCGGACGAGCCC | 0.25 |
| TGCTTGTTGGTCTAGGGGTATGATTCTCGCTTAGGGTGCGAGAGGTCCCGGGTTCAAATCCCGGACGAGCCC | 0.17 |
| GGCTCGTTGGTCTAGGGGTATGATTCTCGCTTGGGGTACGAGAGGTCCCGGGTTCAAGTCCCGGACGAGCCC | 0.2 |
| GGCTCGTTGGTCTAAGGATATGATTCTCGCTTAGGGTGCGAGAGGTCCCGGGTTCACAACCCGGACGAGCCC | 0.4 |
| GGCTCGTTGGTCTAGGGGTGTGATTCTCGCTTAGGGTGCGAGAGGTCCCGGGTTCACGTCCCGGACGAGCCC | 0.15 |
| GGCTCGTTGGTCTCGCGGACTGATTCTCGCTTAGGGTGCGAGAGGTCCCGGGTTCAAGTCCCGGACGAGCCC | 0.25 |
| GGCTCGTTGGTCTAGAGGTATGATTCTCGCTTAGGGTGCGAGAGGTCCCGGGATCAAAGCCCGGACGAGCCC | 0.25 |
| GGCTCGTTTGTCTAGGGGTTTGATTCTCGCTTAGGGTGCGAGAGGTCCCGGGATCGAATCCCGGACGAGCCC | 0.33 |

Reformatted tab-delimited: part of the list above
Variant	tRNA 3' processing efficiency
GGCTCGTCGGTCTGGCGGTATGATTCTCGCTTAGGGTGCGAGAGGTCCCGGGTTCAGATCCCGGACGAGCCC	0.25
GGCTCGTTGGTCTAGCGGTATGATTCTCGCTTAGGGCGCGAGAGGTCCCGGGTACAAATCCCGGACGAGCCC	0.25

Variants of: B1
Test: tRNA 5' processing efficiency (processed reads / all reads, maximum-likelihood estimate) (fraction); higher = more efficient 5' processing
Details: HEK293T; construct: CMV Pol-II promoter ((+)CMV library, decapped)

| Variant | tRNA 5' processing efficiency |
| --- | --- |
| GGCTCGTTGGTCTACGGGAATGATTCTCGCTTAGGGTGCGAGAGGTCCCGGGTTCCAATCCCGGACGAGCCC | 0.25 |
| GGCTCGTTCGTCTAGGGGTATGATTCTCGCTTAGGGTGCGAGAGGTCCCGGGTTCGAACCCCGGACGAGCCC | 0.17 |
